Assay results

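A cell-based FRET test of anthrax lethal toxin entry, tracked through the 460 nm emission signal; the cell line is not named here.
Each compound was tested as a concentration series from about 0.0005 to 40 µM.
The number is the fitted AC50 of the 460 nm signal alone; lower values mean a more potent effect. A falling signal goes with compounds filed as inhibitors or cytotoxic, a rising one with activators or fluorescent compounds (inferred from the filed classes).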

Values are in µM.
Common to all entries: measured here: 460 nm channel.
Part of the compounds only, not a random draw; the main read-out is not listed here.
A potency from a partial, single-point or poor curve is only a rough figure.
The first word of each remark tells which way the curve ran; it can be opposite to the aim of the assay.

* O=C(CSc1nncc2ccccc12)N1CCOCC1 | AC50 12.59 µM (rising, partial curve, poor fit)
* CCN(CC)C(=S)SSC(=S)N(CC)CC | AC50 3.981 µM (rising, full curve)
* O=C(O)[C@@H]1[C@@H]2C[C@H]3c4[nH]c5ccccc5c4CCN3C[C@@H]2CC[C@@H]1O | AC50 12.59 µM (falling, single point)
* CSCSC1=C(C#N)C(c2ccccc2Cl)C(C(C)=O)=C(C)N1 (centres undefined) | AC50 19.95 µM (rising, single point)
* COc1ccccc1Nc1nc(N)nc(CSc2nc(C)cc(C)n2)n1 | AC50 1.585 µM (falling, partial curve)
* O=S(=O)(Nc1ccc2c(c1)CCC2)c1cccs1 | AC50 12.59 µM (falling, partial curve)
* COCCn1c(=O)c(-c2ccccc2)nc2cnc(N(C)C)nc21 | AC50 10 µM (rising, partial curve)
* CCOC(=O)c1sc(Nc2nc3c(OC)cccc3s2)nc1C | AC50 10 µM (rising, partial curve)
* CCOc1ccc(-c2cc3nc(C4CCN(C(=O)OC(C)(C)C)CC4)c(C(=O)O)cn3n2)cc1 | AC50 0.1 µM (rising, full curve)
* CCC(C)[C@H](N)c1nnc(SCc2cccc(F)c2)o1 (some centres undefined) | AC50 3.981 µM (rising, single point)
* CC(C)[C@@]1(NC(=O)[C@@H]2C[C@H]3c4cccc5[nH]cc(c45)C[C@@H]3N(C)C2)O[C@@]2(O)[C@H]3CCCN3C(=O)[C@@H](Cc3ccccc3)N2C1=O | AC50 0.001259 µM (rising, full curve, poor fit)
* C=C(C)CN(CC)c1nc(N)c(C#N)c(CC#N)c1C#N | AC50 12.59 µM (rising, partial curve)
* COc1ccc(S(=O)(=O)Nc2cc(C(=O)NC3CCCCCC3)ccc2N2CCOCC2)cc1 | AC50 3.162 µM (rising, full curve, poor fit)
* CC(C)C(=O)Nc1cccc2nsnc12 | AC50 15.85 µM (rising, partial curve, poor fit)
* COCC(=O)c1[nH]c2ccccc2c1C | AC50 0.005012 µM (rising, full curve, poor fit)
* C[N+](C)(C)[C@@H](C1=CCCC1=O)c1ccccc1 | AC50 0.1259 µM (falling, full curve)
* COC(=O)/C=C\C(=O)N[C@@H]1CC[C@@]2(O)[C@H]3Cc4ccc(O)c5c4[C@@]2(CCN3CC2CC2)[C@@H]1O5 | AC50 12.59 µM (falling, single point)
* O=C(O)Cc1coc(-c2ccc(F)cc2)n1 | AC50 3.981 µM (rising, single point)

Data taken from PubChem BioAssay AID912, deposited by NCATS (2007).